From ChEMBL document CHEMBL4311986, “Synthesis and biological evaluation of new multi-target 3-(1H-indol-3-yl)pyrrolidine-2,5-dione derivatives with potential antidepressant effect” (Eur J Med Chem, 2019) come the findings set out here.

The chains behind the UniProt entries cited, without tags or fusion partners.
UniProt P41595, whole entry: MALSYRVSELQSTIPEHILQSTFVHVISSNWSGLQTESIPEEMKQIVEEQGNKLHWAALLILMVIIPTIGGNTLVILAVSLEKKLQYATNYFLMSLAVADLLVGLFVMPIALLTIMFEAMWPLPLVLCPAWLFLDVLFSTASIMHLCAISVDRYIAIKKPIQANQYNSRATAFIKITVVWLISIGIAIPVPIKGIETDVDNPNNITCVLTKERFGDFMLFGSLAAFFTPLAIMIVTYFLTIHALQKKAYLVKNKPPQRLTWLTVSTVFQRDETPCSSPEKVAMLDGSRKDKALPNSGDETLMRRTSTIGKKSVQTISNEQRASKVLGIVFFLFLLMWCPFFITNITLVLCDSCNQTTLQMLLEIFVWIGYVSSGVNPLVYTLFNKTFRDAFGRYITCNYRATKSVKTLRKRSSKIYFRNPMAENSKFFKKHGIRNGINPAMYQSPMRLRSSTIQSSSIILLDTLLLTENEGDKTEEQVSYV

Each structure is given as a SMILES string. Structures can show the parent of a compound that is named as a salt.

For this experiment, the target named is 5-hydroxytryptamine receptor 2B (Homo sapiens, UniProt P41595). Kind of experiment: Binding affinity to 5-HT2BR (unknown origin).

Turning to `CC[C@@H](CO)NC(=O)[C@@H]1C=C2c3cccc4c3c(cn4C)C[C@H]2N(C)C1` [METHYSERGIDE MALEATE], the inhibitory constant (Ki) (as a rule, the dissociation constant of the complex between target and ligand, obtained from inhibition or displacement) stood at 1.9 nM.
